Source: paper PMC8260731
No constants are given. Whether binding was seen depends on the method and setting. Binding seen in cells or lysates may run through a third protein. Some entries that bind do so weakly or less than the wild type. Where a sequence is shown, tags or fusion partners need not be part of it.

Protein sequences, listed by entry. Tags and fused reporters are not part of them.
UniProt Q01105: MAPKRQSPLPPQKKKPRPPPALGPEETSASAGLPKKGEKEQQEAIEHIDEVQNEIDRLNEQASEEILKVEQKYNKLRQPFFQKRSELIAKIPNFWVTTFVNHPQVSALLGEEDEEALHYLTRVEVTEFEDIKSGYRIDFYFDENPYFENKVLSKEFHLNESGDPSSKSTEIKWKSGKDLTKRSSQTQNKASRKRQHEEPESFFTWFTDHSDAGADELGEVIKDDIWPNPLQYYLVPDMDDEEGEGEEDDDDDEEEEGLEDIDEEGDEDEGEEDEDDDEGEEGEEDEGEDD

B1: GFP-SAP18 (protein, UniProt O00422 1-153)
chain: MAVESRVTQEEIKKEPEKPIDREKTCPLLLRVFTTNNGRHHRMDEFSRGNVPSSELQIYTWMDATLKELTSLVKEVYPEARKKGTHFNFAIVFTDVKRPGYRVKEIGSTMSGRKGTDDSMTLQSQKFQIGDYLDIAITPPNRAPPPSGRMRPY

Key:
[1] = biological target: T1, GST-SAP18 (human) (UniProt O00422); experiment: pull-down; GST fusion (2-3 ug) immobilized on glutathione-Sepharose beads, incubated with 150 ug of HEK 293 cell extract expressing the GFP fusion, 100 ul, 4 h at 4 °C; 50 mM Tris-HCl pH 7.4, 150 mM NaCl, 1% NP-40; western blot with anti-GFP; only the target purified
T1 sequence: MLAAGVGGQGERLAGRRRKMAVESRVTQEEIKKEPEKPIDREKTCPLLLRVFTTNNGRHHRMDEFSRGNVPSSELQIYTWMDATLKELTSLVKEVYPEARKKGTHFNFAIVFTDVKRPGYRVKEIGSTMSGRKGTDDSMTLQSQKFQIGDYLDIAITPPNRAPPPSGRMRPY

[2] = biological target: GST-SET (UniProt Q01105); experiment: as above

Molecule | binding [1] | binding [2]
GFP-SET (from UniProt Q01105 1-290) | binds | 
B1 |  | binds
